This passage reports binding results from article doi:10.1101/2025.04.11.648320 (bioRxiv, 2025).

Protein sequences, listed by entry. Tags and fused reporters are not part of them. Lines headed by an entry give the natural chain unless they say otherwise; changes in a name come on top.
UniProt Q9SRH6: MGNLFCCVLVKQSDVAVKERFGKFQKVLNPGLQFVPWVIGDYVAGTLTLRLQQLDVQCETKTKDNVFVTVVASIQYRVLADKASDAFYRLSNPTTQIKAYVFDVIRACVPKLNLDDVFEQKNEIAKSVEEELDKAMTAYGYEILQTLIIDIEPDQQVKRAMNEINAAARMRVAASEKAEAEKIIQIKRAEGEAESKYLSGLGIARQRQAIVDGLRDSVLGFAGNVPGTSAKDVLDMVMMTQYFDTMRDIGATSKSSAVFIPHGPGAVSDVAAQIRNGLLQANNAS

The target in the test is T1, BIR2, endogenous in Arabidopsis plants (Arabidopsis thaliana (endogenous in Arabidopsis plants)) (UniProt Q9LSI9).
T1 sequence: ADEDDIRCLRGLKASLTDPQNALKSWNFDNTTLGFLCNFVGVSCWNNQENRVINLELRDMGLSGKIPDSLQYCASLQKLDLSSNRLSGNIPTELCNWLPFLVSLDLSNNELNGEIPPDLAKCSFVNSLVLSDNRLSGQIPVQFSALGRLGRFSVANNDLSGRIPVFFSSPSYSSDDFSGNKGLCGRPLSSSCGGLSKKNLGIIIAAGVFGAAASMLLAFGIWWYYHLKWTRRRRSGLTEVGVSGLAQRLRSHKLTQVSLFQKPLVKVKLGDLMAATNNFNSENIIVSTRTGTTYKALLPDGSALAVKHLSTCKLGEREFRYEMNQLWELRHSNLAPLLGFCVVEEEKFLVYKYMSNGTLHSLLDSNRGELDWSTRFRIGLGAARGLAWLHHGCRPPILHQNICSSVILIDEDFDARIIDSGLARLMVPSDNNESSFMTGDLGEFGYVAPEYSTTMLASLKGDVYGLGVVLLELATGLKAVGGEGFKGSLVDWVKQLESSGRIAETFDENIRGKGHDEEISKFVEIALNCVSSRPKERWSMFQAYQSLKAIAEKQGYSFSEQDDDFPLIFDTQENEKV
Description: affinity purification with mass spectrometry.

No constants are given. Whether binding was seen depends on the method and setting. Binding seen in cells or lysates may run through a third protein. A yes stands for co-enrichment or nearness to the bait. Other partners may have been found.

Consider “HIR2, endogenous in Arabidopsis plants (from UniProt Q9SRH6)”, for which the binding result is recorded as “binds”.
